Laboratory results: article PMC3876986, “The Velvet Family of Fungal Regulators Contains a DNA-Binding Domain Structurally Similar to NF-κB”
Weaker means in comparison with the reference protein, sequence or condition of that experiment.

Columns and labels:
Test in all cases: EMSA
Conditions in all cases: EMSA: 10 mM HEPES/NaOH pH 7.4, 150 mM NaCl, ~53 pmol DNA in 10 ul, RT 15 min; DNA:protein molar ratios 1:0.3 to 1:9; 6% PAGE, 0.5% TBE, ethidium bromide; recombinant protein; residues 1-190; protein details: Strep-tag (C-terminal)
[1] = molecular target: VosA1-190 K37A (Aspergillus nidulans) (UniProt Q5BBX1)
[2] = molecular target: VosA1-190 K39A (Aspergillus nidulans) (UniProt Q5BBX1)
[3] = molecular target: VosA1-190 K42A (Aspergillus nidulans) (UniProt Q5BBX1)
[4] = molecular target: VosA1-190 R41A (Aspergillus nidulans) (UniProt Q5BBX1)

Measured: binding result

ATTCGGCGACTAGGATCTTACTGGCCGCGGCCGAG (double strand) [brlA 35 bp probe (OHS301/302)]
binds more weakly: [1] | [2] | [3] | [4]
